Results are given in words; binding and its absence hold for the method and conditions named. Some binding calls cover weakened binding; strength is not graded here.
T1: peroxiredoxin 2 (Prx 2, cytosolic isoform) (mouse (endogenous in C2C12)), Q61171
T1 chain: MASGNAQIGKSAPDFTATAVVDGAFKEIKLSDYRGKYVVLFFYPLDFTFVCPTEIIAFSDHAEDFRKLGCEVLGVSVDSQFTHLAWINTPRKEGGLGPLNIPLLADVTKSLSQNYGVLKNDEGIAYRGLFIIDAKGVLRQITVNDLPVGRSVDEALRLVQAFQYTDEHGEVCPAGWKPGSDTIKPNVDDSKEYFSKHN


Key:
[1] = target: peroxiredoxin 3 (Prx 3, mitochondrial matrix isoform) (mouse (endogenous in C2C12)) (UniProt P20108); experiment: non-reducing SDS-PAGE with Western blot (disulfide-linked dimers); C2C12 myotubes treated with H2O2 boluses (7.5-750 uM, 10 or 30 min) or MitoPQ (5 uM, 0.5-24 h); thiols blocked with 80 mM methyl methanethiosulfonate; RIPA lysis; DTT excluded from sample buffer; % dimer = SI dimer/(SI dimer + SI monomer) x 100
[2] = target: T1, peroxiredoxin 2 (Prx 2, cytosolic …); experiment: as above; conditions: remark: other sources report otherwise

binding [1]	binding [2]	Binder
binds		peroxiredoxin 3 (Prx 3, mitochondrial matrix isoform) (protein, UniProt P20108 63-257) TPAVTQHAPYFKGTAVVNGEFKELSLDDFKGKYLVLFFYPLDFTFVCPTEIVAFSDKANEFHDVNCEVVAVSVDSHFSHLAWINTPRKNGGLGHMNITLLSDITKQISRDYGVLLESAGIALRGLFIIDPNGVVKHLSVNDLPVGRSVEETLRLVKAFQFVETHGEVCPANWTPESPTIKPSPTASKEYFEKVHQ
	binds	peroxiredoxin 2 (Prx 2, cytosolic isoform), Q61171 1-198 (protein) MASGNAQIGKSAPDFTATAVVDGAFKEIKLSDYRGKYVVLFFYPLDFTFVCPTEIIAFSDHAEDFRKLGCEVLGVSVDSQFTHLAWINTPRKEGGLGPLNIPLLADVTKSLSQNYGVLKNDEGIAYRGLFIIDAKGVLRQITVNDLPVGRSVDEALRLVQAFQYTDEHGEVCPAGWKPGSDTIKPNVDDSKEYFSKHN

Source: paper PMC6222118
